This is one part of the list. Most values lie at the level of the controls, where differences are scatter.

Protein sequences, listed by entry. Tags and fused reporters are not part of them. Lines headed by an entry give the natural chain unless they say otherwise; changes in a name come on top.
UniProt O14579: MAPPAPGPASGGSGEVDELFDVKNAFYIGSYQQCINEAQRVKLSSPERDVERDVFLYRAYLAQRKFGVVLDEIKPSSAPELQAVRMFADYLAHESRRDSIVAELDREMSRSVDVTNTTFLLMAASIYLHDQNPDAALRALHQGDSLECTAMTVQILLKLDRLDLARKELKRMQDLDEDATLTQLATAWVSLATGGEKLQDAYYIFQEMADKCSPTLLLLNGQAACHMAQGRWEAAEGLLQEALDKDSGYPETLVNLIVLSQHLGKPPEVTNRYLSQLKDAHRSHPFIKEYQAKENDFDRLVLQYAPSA
UniProt A6NGE4: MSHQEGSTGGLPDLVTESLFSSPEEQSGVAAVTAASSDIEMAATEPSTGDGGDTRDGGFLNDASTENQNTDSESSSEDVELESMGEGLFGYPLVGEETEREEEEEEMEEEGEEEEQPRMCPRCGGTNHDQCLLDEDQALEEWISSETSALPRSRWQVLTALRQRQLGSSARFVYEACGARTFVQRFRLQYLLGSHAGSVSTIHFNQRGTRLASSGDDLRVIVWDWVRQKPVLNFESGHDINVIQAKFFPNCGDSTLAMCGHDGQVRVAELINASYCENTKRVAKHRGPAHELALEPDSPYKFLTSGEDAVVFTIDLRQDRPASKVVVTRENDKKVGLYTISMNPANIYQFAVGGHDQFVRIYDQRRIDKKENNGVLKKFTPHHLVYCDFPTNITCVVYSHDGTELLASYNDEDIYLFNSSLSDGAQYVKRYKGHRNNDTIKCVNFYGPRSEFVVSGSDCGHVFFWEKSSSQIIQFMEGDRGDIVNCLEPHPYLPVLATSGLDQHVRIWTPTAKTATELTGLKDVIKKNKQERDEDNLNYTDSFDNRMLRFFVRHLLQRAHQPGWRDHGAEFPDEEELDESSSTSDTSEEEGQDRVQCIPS
UniProt O14810: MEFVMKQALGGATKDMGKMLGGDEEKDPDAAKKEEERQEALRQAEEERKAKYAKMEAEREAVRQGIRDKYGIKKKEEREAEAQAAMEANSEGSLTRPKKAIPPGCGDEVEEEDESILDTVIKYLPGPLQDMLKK
UniProt O15084: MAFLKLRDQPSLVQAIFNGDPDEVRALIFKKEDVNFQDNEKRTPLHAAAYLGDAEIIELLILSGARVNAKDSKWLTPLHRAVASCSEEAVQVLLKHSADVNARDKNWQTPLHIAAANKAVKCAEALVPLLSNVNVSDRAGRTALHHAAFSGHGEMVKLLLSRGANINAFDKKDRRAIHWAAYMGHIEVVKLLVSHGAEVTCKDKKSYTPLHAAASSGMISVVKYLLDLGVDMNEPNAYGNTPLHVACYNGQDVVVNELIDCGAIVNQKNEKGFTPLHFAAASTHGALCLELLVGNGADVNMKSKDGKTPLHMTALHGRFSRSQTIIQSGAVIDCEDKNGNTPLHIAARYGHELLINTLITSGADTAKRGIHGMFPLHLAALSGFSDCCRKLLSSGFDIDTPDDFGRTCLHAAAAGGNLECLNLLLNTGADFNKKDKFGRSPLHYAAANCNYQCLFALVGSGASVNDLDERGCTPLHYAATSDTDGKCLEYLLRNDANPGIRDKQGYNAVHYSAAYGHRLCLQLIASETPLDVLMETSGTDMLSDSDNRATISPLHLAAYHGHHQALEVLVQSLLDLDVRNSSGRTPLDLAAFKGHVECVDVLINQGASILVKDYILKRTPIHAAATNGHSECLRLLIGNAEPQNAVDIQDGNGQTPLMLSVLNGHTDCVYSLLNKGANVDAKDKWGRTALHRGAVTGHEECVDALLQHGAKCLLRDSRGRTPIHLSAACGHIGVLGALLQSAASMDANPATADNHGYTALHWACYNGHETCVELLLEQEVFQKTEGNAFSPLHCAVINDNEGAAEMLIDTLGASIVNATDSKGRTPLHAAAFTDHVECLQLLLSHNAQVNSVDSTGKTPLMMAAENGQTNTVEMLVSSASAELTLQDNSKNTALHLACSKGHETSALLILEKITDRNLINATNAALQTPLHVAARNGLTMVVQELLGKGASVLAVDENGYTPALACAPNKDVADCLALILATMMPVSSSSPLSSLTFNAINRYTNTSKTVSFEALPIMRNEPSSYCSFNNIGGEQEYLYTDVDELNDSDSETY
UniProt O00488: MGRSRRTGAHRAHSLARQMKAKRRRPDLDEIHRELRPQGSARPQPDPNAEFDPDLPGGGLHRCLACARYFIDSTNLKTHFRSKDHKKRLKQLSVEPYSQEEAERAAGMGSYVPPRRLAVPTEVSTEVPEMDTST
UniProt O14787: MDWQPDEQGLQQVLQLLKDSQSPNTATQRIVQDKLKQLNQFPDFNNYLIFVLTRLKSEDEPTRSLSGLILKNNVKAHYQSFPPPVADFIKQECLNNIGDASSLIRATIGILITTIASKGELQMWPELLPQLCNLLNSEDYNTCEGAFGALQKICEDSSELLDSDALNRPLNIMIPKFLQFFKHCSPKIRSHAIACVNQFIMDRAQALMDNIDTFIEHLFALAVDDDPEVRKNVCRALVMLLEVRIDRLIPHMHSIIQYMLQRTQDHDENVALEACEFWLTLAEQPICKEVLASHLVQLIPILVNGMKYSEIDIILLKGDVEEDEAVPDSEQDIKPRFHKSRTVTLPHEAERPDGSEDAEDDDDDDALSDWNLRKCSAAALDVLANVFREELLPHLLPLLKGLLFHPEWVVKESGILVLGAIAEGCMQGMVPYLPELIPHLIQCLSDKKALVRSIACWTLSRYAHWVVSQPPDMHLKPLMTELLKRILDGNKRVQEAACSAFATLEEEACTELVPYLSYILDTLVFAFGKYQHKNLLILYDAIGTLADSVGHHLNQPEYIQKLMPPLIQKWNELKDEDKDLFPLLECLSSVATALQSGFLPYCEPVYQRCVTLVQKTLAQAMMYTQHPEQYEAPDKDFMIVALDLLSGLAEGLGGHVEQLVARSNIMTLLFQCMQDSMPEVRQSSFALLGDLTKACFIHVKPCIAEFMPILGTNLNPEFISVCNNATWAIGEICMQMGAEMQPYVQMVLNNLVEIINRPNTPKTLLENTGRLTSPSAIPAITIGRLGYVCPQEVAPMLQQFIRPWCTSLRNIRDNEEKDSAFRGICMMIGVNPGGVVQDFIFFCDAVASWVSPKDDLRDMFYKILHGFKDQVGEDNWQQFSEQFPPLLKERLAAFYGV
UniProt O15260: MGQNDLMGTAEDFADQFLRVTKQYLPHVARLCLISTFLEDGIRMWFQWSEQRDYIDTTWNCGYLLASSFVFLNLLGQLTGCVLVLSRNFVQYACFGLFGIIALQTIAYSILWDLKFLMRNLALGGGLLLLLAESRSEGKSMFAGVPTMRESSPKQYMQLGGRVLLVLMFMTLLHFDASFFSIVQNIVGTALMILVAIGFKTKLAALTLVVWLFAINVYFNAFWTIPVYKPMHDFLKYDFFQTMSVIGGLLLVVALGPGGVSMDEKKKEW
UniProt O14503, whole entry: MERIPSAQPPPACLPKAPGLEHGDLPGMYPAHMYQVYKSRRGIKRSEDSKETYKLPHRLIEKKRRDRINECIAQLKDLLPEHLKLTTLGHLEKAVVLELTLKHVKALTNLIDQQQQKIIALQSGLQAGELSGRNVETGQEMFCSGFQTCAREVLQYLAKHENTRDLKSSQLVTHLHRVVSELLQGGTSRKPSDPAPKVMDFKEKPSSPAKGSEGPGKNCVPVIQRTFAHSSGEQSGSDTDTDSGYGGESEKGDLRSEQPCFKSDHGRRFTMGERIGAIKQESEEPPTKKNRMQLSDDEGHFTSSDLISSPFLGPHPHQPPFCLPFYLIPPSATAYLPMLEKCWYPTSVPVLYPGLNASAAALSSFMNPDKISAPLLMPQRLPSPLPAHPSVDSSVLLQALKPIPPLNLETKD
UniProt O15304: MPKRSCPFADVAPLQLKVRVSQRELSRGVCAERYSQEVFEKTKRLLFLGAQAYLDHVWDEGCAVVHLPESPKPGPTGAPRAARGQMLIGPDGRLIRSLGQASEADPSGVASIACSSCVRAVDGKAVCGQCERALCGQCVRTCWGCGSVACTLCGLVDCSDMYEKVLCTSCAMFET
UniProt O15372, whole entry: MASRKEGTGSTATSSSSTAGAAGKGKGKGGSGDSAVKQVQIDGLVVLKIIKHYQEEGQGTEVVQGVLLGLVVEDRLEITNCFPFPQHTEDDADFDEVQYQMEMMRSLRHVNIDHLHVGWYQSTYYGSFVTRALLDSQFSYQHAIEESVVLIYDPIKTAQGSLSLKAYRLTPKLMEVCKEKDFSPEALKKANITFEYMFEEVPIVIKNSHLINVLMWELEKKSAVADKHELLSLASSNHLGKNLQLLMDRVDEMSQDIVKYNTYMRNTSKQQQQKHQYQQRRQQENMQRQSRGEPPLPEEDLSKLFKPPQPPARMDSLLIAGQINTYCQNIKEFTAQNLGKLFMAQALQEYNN
UniProt O15347: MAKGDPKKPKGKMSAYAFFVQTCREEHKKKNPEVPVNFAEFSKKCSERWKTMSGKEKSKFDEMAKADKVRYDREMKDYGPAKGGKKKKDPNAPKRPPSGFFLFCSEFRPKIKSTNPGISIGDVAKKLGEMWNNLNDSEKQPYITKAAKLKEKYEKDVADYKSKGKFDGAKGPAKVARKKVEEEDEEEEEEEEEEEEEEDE
UniProt O14508, whole entry: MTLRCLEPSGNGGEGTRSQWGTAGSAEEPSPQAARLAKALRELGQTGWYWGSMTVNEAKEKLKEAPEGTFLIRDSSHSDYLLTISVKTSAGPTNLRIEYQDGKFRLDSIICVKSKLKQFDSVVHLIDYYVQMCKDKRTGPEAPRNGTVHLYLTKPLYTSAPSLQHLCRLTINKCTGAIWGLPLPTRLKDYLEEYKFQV
UniProt B7Z6K7: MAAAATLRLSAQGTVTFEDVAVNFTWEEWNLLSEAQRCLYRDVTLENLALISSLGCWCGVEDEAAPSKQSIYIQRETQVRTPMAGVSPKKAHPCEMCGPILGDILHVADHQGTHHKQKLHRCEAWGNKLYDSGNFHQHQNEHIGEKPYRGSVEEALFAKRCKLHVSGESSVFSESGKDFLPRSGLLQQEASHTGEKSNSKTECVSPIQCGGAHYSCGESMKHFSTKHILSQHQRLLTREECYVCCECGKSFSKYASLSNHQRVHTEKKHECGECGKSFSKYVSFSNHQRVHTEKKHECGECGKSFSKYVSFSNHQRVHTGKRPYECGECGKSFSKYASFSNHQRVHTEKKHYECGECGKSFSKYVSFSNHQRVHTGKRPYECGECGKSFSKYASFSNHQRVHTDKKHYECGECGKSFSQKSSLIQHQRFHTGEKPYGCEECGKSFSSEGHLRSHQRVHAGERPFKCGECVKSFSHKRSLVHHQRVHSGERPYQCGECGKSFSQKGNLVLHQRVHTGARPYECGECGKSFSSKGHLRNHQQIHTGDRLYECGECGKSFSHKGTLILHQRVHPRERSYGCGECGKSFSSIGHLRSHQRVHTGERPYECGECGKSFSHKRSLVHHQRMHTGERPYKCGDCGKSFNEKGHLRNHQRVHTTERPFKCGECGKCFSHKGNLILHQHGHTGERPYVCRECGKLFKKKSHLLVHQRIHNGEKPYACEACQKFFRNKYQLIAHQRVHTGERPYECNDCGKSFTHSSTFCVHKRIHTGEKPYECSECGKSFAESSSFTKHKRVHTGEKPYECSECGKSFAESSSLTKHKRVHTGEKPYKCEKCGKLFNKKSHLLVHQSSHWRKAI
UniProt O14628: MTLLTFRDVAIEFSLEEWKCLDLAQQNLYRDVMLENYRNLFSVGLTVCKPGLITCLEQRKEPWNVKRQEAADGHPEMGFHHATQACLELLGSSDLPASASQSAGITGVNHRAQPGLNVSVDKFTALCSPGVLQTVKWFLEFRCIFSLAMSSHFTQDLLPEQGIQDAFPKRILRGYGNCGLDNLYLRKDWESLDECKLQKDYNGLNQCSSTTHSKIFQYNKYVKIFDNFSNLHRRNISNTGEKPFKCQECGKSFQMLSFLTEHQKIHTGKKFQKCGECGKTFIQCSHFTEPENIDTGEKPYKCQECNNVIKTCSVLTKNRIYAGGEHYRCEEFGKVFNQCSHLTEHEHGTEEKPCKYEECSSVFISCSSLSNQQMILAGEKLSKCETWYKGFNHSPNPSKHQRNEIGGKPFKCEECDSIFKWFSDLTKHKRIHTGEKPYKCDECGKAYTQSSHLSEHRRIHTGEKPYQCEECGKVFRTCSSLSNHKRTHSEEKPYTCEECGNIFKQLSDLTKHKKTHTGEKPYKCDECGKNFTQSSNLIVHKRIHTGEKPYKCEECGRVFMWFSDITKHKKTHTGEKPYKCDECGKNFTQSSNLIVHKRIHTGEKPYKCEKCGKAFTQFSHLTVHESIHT

Compound in this experiment: CN[C@@H]1C[C@H]2O[C@@](C)([C@@H]1OC)n1c3ccccc3c3c4c(c5c6ccccc6n2c5c31)C(=O)NC4 [staurosporine]
In words: log2 fold change of tryptic peptide abundance, ligand vs vehicle (limited proteolysis) (log2 ratio); higher = more trypsin-susceptible (destabilized). The note with it: ligand concentration: 20 uM; sample: K562 cleared lysate; digestion: 4 min, 22 C (HT-PELSA RT4min, Orbitrap Astral).
For “COPE (peptide sequence: DSIVAELDREMSR, peptide start residue: 98) (UniProt O14579)”, the log2 fold change was -0.101.

On to “FPGT (peptide sequence: FLHKPSIEK, peptide start residue: 240) (UniProt O14772)”, for which the log2 fold change came to 0.143.

Turning to “UniProt A6NGE4 (peptide sequence: KENNGVLKK, peptide start residue: 402)”, the log2 fold change stood at 0.476.

For “TUBAL3 (peptide sequence: GRYSVGSEVIDLVLER, peptide start residue: 113) (UniProt A6NHL2)”, the log2 fold change is 0.473.

On to “CPLX1 (peptide sequence: YLPGPLQDMLKK, peptide start residue: 123) (UniProt O14810)”, for which the log2 fold change amounted to 0.131.

For the target “UniProt O00487 (peptide sequence: AVAVVVDPIQSVKGK, peptide start residue: 140)”, the log2 fold change was -0.551.

With “SMCHD1 (peptide sequence: EKDQLSQSIVMYK, peptide start residue: 1629) (UniProt A6NHR9)”, the log2 fold change is -0.175.

In the case of “UniProt A8MW92 (peptide sequence: NNQGNSFQAK, peptide start residue: 265)”, the log2 fold change is -0.661.

For “DNM1L (peptide sequence: LLMHHIR, peptide start residue: 292) (UniProt O00429)”, the log2 fold change amounted to 0.312.

Consider “ANKRD28 (peptide sequence: GHETSALLILEK, peptide start residue: 901) (UniProt O15084)”, for which the log2 fold change is -1.01.

As to “INPPL1 (peptide sequence: AAAEELLAR, peptide start residue: 29) (UniProt O15357)”, the log2 fold change turned out to be 0.333.

For the target “ARVCF (peptide sequence: GVPALVALVASSQSVR, peptide start residue: 802) (UniProt O00192)”, the log2 fold change is -0.361.

“DVL1 (peptide sequence: YGTSPCSSAVTR, peptide start residue: 377) (UniProt O14640)”: the log2 fold change was -0.367.

“ARID1A (peptide sequence: SSEAIKESSK, peptide start residue: 1929) (UniProt O14497)”: the log2 fold change was -0.692.

As for “UniProt O14948 (peptide sequence: DNHNLIER, peptide start residue: 314)”, the log2 fold change amounted to 0.141.

In the case of “SEC16A (peptide sequence: EHSAFGDRPEK, peptide start residue: 1303) (UniProt O15027)”, the log2 fold change amounted to 0.618.

On to “ZNF593 (peptide sequence: AAGMGSYVPPR, peptide start residue: 105) (UniProt O00488)”, for which the log2 fold change came to 0.244.

Turning to “TNPO2 (peptide sequence: NIRDNEEKDSAFR, peptide start residue: 811) (UniProt O14787)”, the log2 fold change is 0.323.

As for “UniProt E9PRG8 (peptide sequence: TSEPQLKR, peptide start residue: 97)”, the log2 fold change was determined as 0.176.

Regarding “MCRIP1 (peptide sequence: SPPSSSEIFTPAHEENVR, peptide start residue: 21) (UniProt C9JLW8)”, the log2 fold change is -0.0656.

For the target “DFFA (peptide sequence: KTETVQEACER, peptide start residue: 281) (UniProt O00273)”, the log2 fold change was -0.188.

In the case of “SURF4 (peptide sequence: SMFAGVPTMR, peptide start residue: 140) (UniProt O15260)”, the log2 fold change came to 0.0394.

On to “UniProt A8K0S8 (peptide sequence: GKMPIDLVIEDR, peptide start residue: 66)”, for which the log2 fold change amounted to 0.0498.

As to “BHLHE40 (peptide sequence: AVVLELTLK, peptide start residue: 94) (UniProt O14503)”, the log2 fold change was -0.247.

Consider “GIPC1 (peptide sequence: LVFHTQLAHGSPTGR, peptide start residue: 58) (UniProt O14908)”, for which the log2 fold change was -0.506.

Take “UniProt O14972 (peptide sequence: SVELQLVR, peptide start residue: 208)”: the log2 fold change is -0.224.

As to “KMT2D (peptide sequence: NTLRQEK, peptide start residue: 2698) (UniProt O14686)”, the log2 fold change is -1.29.

Take “SIVA1 (peptide sequence: AVCGQCER, peptide start residue: 125) (UniProt O15304)”: the log2 fold change was -1.01.

As to “EIF3H (peptide sequence: EKDFSPEALKK, peptide start residue: 179) (UniProt O15372)”, the log2 fold change came to 0.25.

Take “UniProt D6RIA3 (peptide sequence: KMQREHEFK, peptide start residue: 820)”: the log2 fold change is 0.202.

“SYNJ2 (peptide sequence: QHPTYKDDADLVELKR, peptide start residue: 1064) (UniProt O15056)”: the log2 fold change turned out to be 0.743.

In the case of “HMGB3 (peptide sequence: EKSKFDEMAK, peptide start residue: 56) (UniProt O15347)”, the log2 fold change is -0.477.

For “SOCS2 (peptide sequence: TSAGPTNLR, peptide start residue: 88) (UniProt O14508)”, the log2 fold change is -0.115.

In the case of “UniProt B7Z6K7 (peptide sequence: QSIYIQR, peptide start residue: 68)”, the log2 fold change was -0.00528.

Consider “UniProt O14628 (peptide sequence: CQECNNVIK, peptide start residue: 302)”, for which the log2 fold change stood at 0.489.

With “NACA (peptide sequence: IEDLSQQAQLAAAEKFK, peptide start residue: 1991) (UniProt E9PAV3)”, the log2 fold change was -0.126.

Values taken from the supplement of paper PMC12819154, “High-throughput peptide-centric local stability assay extends protein–ligand identification to membrane proteins, tissues and bacteria” (Nature Structural & Molecular Biology, 2025).
